The supplement of paper PMC9233669
This sample is rich in variants without activity.

Tests used:
[1] = tested on: biotinyl-Leu-oxazolone; assay: self-aminoacylation, catalytic enhancement (BLO) (fold over background); higher = more active; k-Seq, kA / k0A0; sequences stand for … in GGGAAUGGAUCCACAUCUACGAAUUC…UUCACUGCAGACUUGACGAAGCUG
In short: (§1)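 The uncatalyzed rate is the low-activity peak of a bimodal Gaussian fit, and catalytic enhancement is median kA divided by it. The kA values came from pseudo-first-order fits, with 1000 bootstraps, of per-sequence fraction reacted measured by streptavidin capture, triplicate qPCR and Illumina sequencing. Mutagenized RNA pools with a 21-nt variable region (0.43 μM) were reacted with each biotinyl-aminoacyl-oxazolone at 2–1250 μM in 50 μL HEPES/NaCl/KCl/MgCl2/CaCl2 buffer with 5% acetonitrile, pH 6.9–7.0, for 90 minutes at room temperature.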

[2] = tested on: biotinyl-Ile-oxazolone; assay: self-aminoacylation, catalytic enhancement (BIO) (fold over background); higher = more active; k-Seq, kA / k0A0; sequences stand for … in GGGAAUGGAUCCACAUCUACGAAUUC…UUCACUGCAGACUUGACGAAGCUG
In short: as §1

[3] = tested on: biotinyl-Val-oxazolone; assay: self-aminoacylation, catalytic enhancement (BVO) (fold over background); higher = more active; k-Seq, kA / k0A0; sequences stand for … in GGGAAUGGAUCCACAUCUACGAAUUC…UUCACUGCAGACUUGACGAAGCUG
In short: as §1

[4] = tested on: biotinyl-Trp-oxazolone; assay: self-aminoacylation, catalytic enhancement (BWO) (fold over background); higher = more active; k-Seq, kA / k0A0; sequences stand for … in GGGAAUGGAUCCACAUCUACGAAUUC…UUCACUGCAGACUUGACGAAGCUG
In short: as §1

[5] = tested on: biotinyl-Met-oxazolone; assay: self-aminoacylation, catalytic enhancement (BMO) (fold over background); higher = more active; k-Seq, kA / k0A0; sequences stand for … in GGGAAUGGAUCCACAUCUACGAAUUC…UUCACUGCAGACUUGACGAAGCUG
In short: as §1

Sequence	self-aminoacylation [1]	self-aminoacylation [2]	self-aminoacylation [3]	self-aminoacylation [4]	self-aminoacylation [5]
AUGUUUGUUAAUAGUCGCAAG [Fam3.1 aminoacylation ribozyme variant]	1.49	1.7	1.35	1.97	1.7
AUUACCCUGACCAUCGAGUGA [Fam2.1 aminoacylation ribozyme variant]	4.95	3.01	2.95	5.06	4.2
AUUACCCUGGUCAGCGAUUGA [Fam2.1 aminoacylation ribozyme variant]	1.09	1.15	1.11	1.55	0.945
AUUACCCUGGUCAUAGAGUCA [Fam2.1 aminoacylation ribozyme variant]	0.962	0.884	0.974	0.529	0.82
AUUACCCUGGUCAUCAAGUGU [Fam2.1 aminoacylation ribozyme variant]	1.47	1.16	1.64	1.24	1.34
AUUCAACUAGGUCAUCGUGUG [Fam2.2 aminoacylation ribozyme variant]	1.17	0.938	0.94	1.02	1.01
AUUCACCCAGGUCAUCGGGUU [Fam2.2 aminoacylation ribozyme variant]		1.61		1.23	
AUUCACCGAGCUCAUCGGGUG [Fam2.2 aminoacylation ribozyme variant]				1.64	
AUUCACCUACGUCAUCGGGUU [Fam2.2 aminoacylation ribozyme variant]	1.93	1.39	1.55	1.54	1.31
AUUCACCUAGCUCAUCGGGUG [Fam2.2 aminoacylation ribozyme variant]		1.83		1.85	1.89
AUUCACCUAGGUCAGCGGCUG [Fam2.2 aminoacylation ribozyme variant]	3.16	1.67	1.83	1.82	2.5
AUUCACCUAGGUCAUGGGAUG [Fam2.2 aminoacylation ribozyme variant]	0.611	0.596	0.657	0.315	0.66
AUUCACCUAGGUCGUCUGGUG [Fam2.2 aminoacylation ribozyme variant]	1.44	0.962	0.995	1.19	1.4
AUUCACCUAGUUCAUCGGGGG [Fam2.2 aminoacylation ribozyme variant]		1.32	1.64	1.86	1.85
AUUCACUUAGCUCAUCGGGUG [Fam2.2 aminoacylation ribozyme variant]		1.91	1.77	1.37	1.57
AUUCAGCUAGGUCAUUGGGUG [Fam2.2 aminoacylation ribozyme variant]	2.38	2.04	2.55	3.25	2.62
AUUCAUCUAGGUCAUCGGGCG [Fam2.2 aminoacylation ribozyme variant]	3.27	2.58	2.71	2.66	3.33
CAACUUCAAACAAUCAGUCUG [Fam1A.1 aminoacylation ribozyme variant]	1.41	1.22	1.01	11.2	0.974
CAACUUCACACAAUCGGUCUG [Fam1A.1 aminoacylation ribozyme variant]	1.16	1.17	1.06	1.5	0.981
CAGUUUCCUAAUAGUCGCAAG [Fam3.1 aminoacylation ribozyme variant]	1.5	1.52	1.41	1.01	1.34
CAGUUUGCUAAUAGUCGAAAG [Fam3.1 aminoacylation ribozyme variant]	1.21	0.996	1.01	1.23	0.883
CAGUUUGCUAAUAGUCGCAGG [Fam3.1 aminoacylation ribozyme variant]	1.9	1.72	1.67	1.51	1.48
CCACACGUCAAGCAAUCGGGC [Fam1B.1 aminoacylation ribozyme variant]	1.15	1.25		1.4	1.05
CCACACUUAAAGCACUCGGUC [Fam1B.1 aminoacylation ribozyme variant]	0.924	1.16	1.11	0.732	0.856
CCACACUUCAAACAAUCGAUC [Fam1B.1 aminoacylation ribozyme variant]	0.455	0.586	0.613	1.08	0.409
CCACACUUCAAGUAAUCGGUG [Fam1B.1 aminoacylation ribozyme variant]	6.33	3.28	2.98	4.68	4.68
CCACACUUCAGGCGAUCGGUC [Fam1B.1 aminoacylation ribozyme variant]	1.84	1.69		1.72	
CCACACUUCAGGCUAUCGGUC [Fam1B.1 aminoacylation ribozyme variant]	1.23	1.33	1.33	1.39	1.1
CCACACUUCAUGCAAUCGGUU [Fam1B.1 aminoacylation ribozyme variant]	1.37	1.2	1.26	0.843	1.33
CUACUUCAAACAAUCGAUGUG [Fam1A.1 aminoacylation ribozyme variant]	1.86	1.42	1.39	1.86	
